From article doi:10.1101/2023.12.02.569451
No constants are given. Whether binding was seen depends on the method and setting. Binding seen in cells or lysates may run through a third protein. These calls come from enrichment with a bait or labelling near it, and not all partners need be listed.

By UniProt entry, the sequences of proteins in these tests, tags left out.
UniProt P35226: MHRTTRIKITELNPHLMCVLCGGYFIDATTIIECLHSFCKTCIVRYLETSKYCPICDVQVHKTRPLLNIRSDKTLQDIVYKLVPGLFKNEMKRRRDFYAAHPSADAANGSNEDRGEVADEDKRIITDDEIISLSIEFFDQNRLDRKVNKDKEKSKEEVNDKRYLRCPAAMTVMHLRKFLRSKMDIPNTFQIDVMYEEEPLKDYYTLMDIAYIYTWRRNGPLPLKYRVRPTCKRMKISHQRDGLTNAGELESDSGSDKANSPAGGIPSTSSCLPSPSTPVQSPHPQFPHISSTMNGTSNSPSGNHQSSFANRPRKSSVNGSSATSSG
UniProt Q99496: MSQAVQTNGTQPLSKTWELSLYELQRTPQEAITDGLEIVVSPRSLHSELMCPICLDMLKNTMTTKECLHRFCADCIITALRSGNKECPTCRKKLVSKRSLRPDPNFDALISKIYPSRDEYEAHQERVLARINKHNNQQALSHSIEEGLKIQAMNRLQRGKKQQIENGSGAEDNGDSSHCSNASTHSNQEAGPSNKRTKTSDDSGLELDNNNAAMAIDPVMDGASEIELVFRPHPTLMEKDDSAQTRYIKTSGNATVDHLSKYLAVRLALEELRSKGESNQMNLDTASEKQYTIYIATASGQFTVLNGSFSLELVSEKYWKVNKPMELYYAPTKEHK

B1: PHC1 (protein, UniProt P78364 1-1004)
chain: METESEQNSNSTNGSSSSGGSSRPQIAQMSLYERQAVQALQALQRQPNAAQYFHQFMLQQQLSNAQLHSLAAVQQATIAASRQASSPNTSTTQQQTTTTQASINLATTSAAQLISRSQSVSSPSATTLTQSVLLGNTTSPPLNQSQAQMYLRPQLGNLLQVNRTLGRNVPLASQLILMPNGAVAAVQQEVPSAQSPGVHADADQVQNLAVRNQQASAQGPQMQGSTQKAIPPGASPVSSLSQASSQALAVAQASSGATNQSLNLSQAGGGSGNSIPGSMGPGGGGQAHGGLGQLPSSGMGGGSCPRKGTGVVQPLPAAQTVTVSQGSQTEAESAAAKKAEADGSGQQNVGMNLTRTATPAPSQTLISSATYTQIQPHSLIQQQQQIHLQQKQVVIQQQIAIHHQQQFQHRQSQLLHTATHLQLAQQQQQQQQQQQQQQQPQATTLTAPQPPQVPPTQQVPPSQSQQQAQTLVVQPMLQSSPLSLPPDAAPKPPIPIQSKPPVAPIKPPQLGAAKMSAAQQPPPHIPVQVVGTRQPGTAQAQALGLAQLAAAVPTSRGMPGTVQSGQAHLASSPPSSQAPGALQECPPTLAPGMTLAPVQGTAHVVKGGATTSSPVVAQVPAAFYMQSVHLPGKPQTLAVKRKADSEEERDDVSTLGSMLPAKASPVAESPKVMDEKSSLGEKAESVANVNANTPSSELVALTPAPSVPPPTLAMVSRQMGDSKPPQAIVKPQILTHIIEGFVIQEGAEPFPVGCSQLLKESEKPLQTGLPTGLTENQSGGPLGVDSPSAELDKKANLLKCEYCGKYAPAEQFRGSKRFCSMTCAKRYNVSCSHQFRLKRKKMKEFQEANYARVRRRGPRRSSSDIARAKIQGKCHRGQEDSSRGSDNSSYDEALSPTSPGPLSVRAGHGERDLGNPNTAPPTPELHGINPVFLSSNPSRWSVEEVYEFIASLQGCQEIAEEFRSQEIDGQALLLLKEEHLMSAMNIKLGPALKICAKINVLKET
B2: PHC2 (protein, UniProt Q8IXK0 1-858)
chain: MENELPVPHTSSSACATSSTSGASSSSGCNNSSSGGSGRPTGPQISVYSGIPDRQTVQVIQQALHRQPSTAAQYLQQMYAAQQQHLMLQTAALQQQHLSSAQLQSLAAVQQASLVSNRQGSTSGSNVSAQAPAQSSSINLAASPAAAQLLNRAQSVNSAAASGIAQQAVLLGNTSSPALTASQAQMYLRAQMLIFTPTATVATVQPELGTGSPARPPTPAQVQNLTLRTQQTPAAAASGPTPTQPVLPSLALKPTPGGSQPLPTPAQSRNTAQASPAGAKPGIADSVMEPHKKGDGNSSVPGSMEGRAGLSRTVPAVAAHPLIAPAYAQLQPHQLLPQPSSKHLQPQFVIQQQPQPQQQQPPPQQSRPVLQAEPHPQLASVSPSVALQPSSEAHAMPLGPVTPALPLQCPTANLHKPGGSQQCHPPTPDTGPQNGHPEGVPHTPQRRFQHTSAVILQLQPASPPQQCVPDDWKEVAPGEKSVPETRSGPSPHQQAIVTAMPGGLPVPTSPNIQPSPAHETGQGIVHALTDLSSPGMTSGNGNSASSIAGTAPQNGENKPPQAIVKPQILTHVIEGFVIQEGAEPFPVGRSSLLVGNLKKKYAQGFLPEKLPQQDHTTTTDSEMEEPYLQESKEEGAPLKLKCELCGRVDFAYKFKRSKRFCSMACAKRYNVGCTKRVGLFHSDRSKLQKAGAATHNRRRASKASLPPLTKDTKKQPTGTVPLSVTAALQLTHSQEDSSRCSDNSSYEEPLSPISASSSTSRRRQGQRDLELPDMHMRDLVGMGHHFLPSEPTKWNVEDVYEFIRSLPGCQEIAEEFRAQEIDGQALLLLKEDHLMSAMNIKLGPALKIYARISMLKDS
B3: PHC3 (protein, UniProt Q8NDX5 1-983)
chain: MDTEPNPGTSSVSTTTSSTTTTTITTSSSRMQQPQISVYSGSDRHAVQVIQQALHRPPSSAAQYLQQMYAAQQQHLMLHTAALQQQHLSSSQLQSLAAVQASLSSGRPSTSPTGSVTQQSSMSQTSINLSTSPTPAQLISRSQASSSTSGSITQQTMLLGSTSPTLTASQAQMYLRAQMLIFTPATTVAAVQSDIPVVSSSSSSSCQSAATQVQNLTLRSQKLGVLSSSQNGPPKSTSQTQSLTICHNKTTVTSSKISQRDPSPESNKKGESPSLESRSTAVTRTSSIHQLIAPASYSPIQPHSLIKHQQIPLHSPPSKVSHHQLILQQQQQQIQPITLQNSTQDPPPSQHCIPLQNHGLPPAPSNAQSQHCSPIQSHPSPLTVSPNQSQSAQQSVVVSPPPPHSPSQSPTIIIHPQALIQPHPLVSSALQPGPNLQQSTANQVQATAQLNLPSHLPLPASPVVHIGPVQQSALVSPGQQIVSPSHQQYSSLQSSPIPIASPPQMSTSPPAQIPPLPLQSMQSLQVQPEILSQGQVLVQNALVSEEELPAAEALVQLPFQTLPPPQTVAVNLQVQPPAPVDPPVVYQVEDVCEEEMPEESDECVRMDRTPPPPTLSPAAITVGRGEDLTSEHPLLEQVELPAVASVSASVIKSPSDPSHVSVPPPPLLLPAATTRSNSTSMHSSIPSIENKPPQAIVKPQILTHVIEGFVIQEGLEPFPVSRSSLLIEQPVKKRPLLDNQVINSVCVQPELQNNTKHADNSSDTEMEDMIAEETLEEMDSELLKCEFCGKMGYANEFLRSKRFCTMSCAKRYNVSCSKKFALSRWNRKPDNQSLGHRGRRPSGPDGAAREHILRQLPITYPSAEEDLASHEDSVPSAMTTRLRRQSERERERELRDVRIRKMPENSDLLPVAQTEPSIWTVDDVWAFIHSLPGCQDIADEFRAQEIDGQALLLLKEDHLMSAMNIKLGPALKICARINSLKES
B4: PCGF3 (protein, UniProt Q3KNV8 1-242)
chain: MLTRKIKLWDINAHITCRLCSGYLIDATTVTECLHTFCRSCLVKYLEENNTCPTCRIVIHQSHPLQYIGHDRTMQDIVYKLVPGLQEAEMRKQREFYHKLGMEVPGDIKGETCSAKQHLDSHRNGETKADDSSNKEAAEEKPEEDNDYHRSDEQVSICLECNSSKLRGLKRKWIRCSAQATVLHLKKFIAKKLNLSSFNELDILCNEEILGKDHTLKFVVVTRWRFKKAPLLLHYRPKMDLL
B5: PCGF6 (protein, UniProt Q9BYE7 1-350)
chain: MEGVAVVTAGSVGAAKTEGAAALPPPPPVSPPALTPAPAAGEEGPAPLSETGAPGCSGSRPPELEPERSLGRFRGRFEDEDEELEEEEELEEEEEEEEEDMSHFSLRLEGGRQDSEDEEERLINLSELTPYILCSICKGYLIDATTITECLHTFCKSCIVRHFYYSNRCPKCNIVVHQTQPLYNIRLDRQLQDIVYKLVINLEEREKKQMHDFYKERGLEVPKPAVPQPVPSSKGRSKKVLESVFRIPPELDMSLLLEFIGANEGTGHFKPLEKKFVRVSGEATIGHVEKFLRRKMGLDPACQVDIICGDHLLEQYQTLREIRRAIGDAAMQDGLLVLHYGLVVSPLKIT
B6: PCGF2 (protein, UniProt P35227 1-344)
chain: MHRTTRIKITELNPHLMCALCGGYFIDATTIVECLHSFCKTCIVRYLETNKYCPMCDVQVHKTRPLLSIRSDKTLQDIVYKLVPGLFKDEMKRRRDFYAAYPLTEVPNGSNEDRGEVLEQEKGALSDDEIVSLSIEFYEGARDRDEKKGPLENGDGDKEKTGVRFLRCPAAMTVMHLAKFLRNKMDVPSKYKVEVLYEDEPLKEYYTLMDIAYIYPWRRNGPLPLKYRVQPACKRLTLATVPTPSEGTNTSGASECESVSDKAPSPATLPATSSSLPSPATPSHGSPSSHGPPATHPTSPTPPSTASGATTAANGGSLNCLQTPSSTSRGRKMTVNGAPVPPLT

biological target: PCGF4 (human (endogenous in HSJD-DIPG-007 and DIPGXIII)) (UniProt P35226); assay: affinity purification with mass spectrometry

Binder	binding
B1	binds
B2	binds
B3	binds

biological target: RING1B (human (endogenous in HSJD-DIPG-007 and DIPGXIII)) (UniProt Q99496); assay: affinity purification with mass spectrometry

Binder	binding
B4	binds
B5	binds
B6	binds
B1	binds
B2	binds
B3	binds
